This is an account of results in the supplement of paper PMC12067093, “Discovery and optimisation of a covalent ligand for TRIM25 and its application to targeted protein ubiquitination” (Chemical Science, 2025).

Protein sequences, listed by entry. Tags and fused reporters are not part of them. Lines headed by an entry give the natural chain unless they say otherwise; changes in a name come on top.
UniProt P50579: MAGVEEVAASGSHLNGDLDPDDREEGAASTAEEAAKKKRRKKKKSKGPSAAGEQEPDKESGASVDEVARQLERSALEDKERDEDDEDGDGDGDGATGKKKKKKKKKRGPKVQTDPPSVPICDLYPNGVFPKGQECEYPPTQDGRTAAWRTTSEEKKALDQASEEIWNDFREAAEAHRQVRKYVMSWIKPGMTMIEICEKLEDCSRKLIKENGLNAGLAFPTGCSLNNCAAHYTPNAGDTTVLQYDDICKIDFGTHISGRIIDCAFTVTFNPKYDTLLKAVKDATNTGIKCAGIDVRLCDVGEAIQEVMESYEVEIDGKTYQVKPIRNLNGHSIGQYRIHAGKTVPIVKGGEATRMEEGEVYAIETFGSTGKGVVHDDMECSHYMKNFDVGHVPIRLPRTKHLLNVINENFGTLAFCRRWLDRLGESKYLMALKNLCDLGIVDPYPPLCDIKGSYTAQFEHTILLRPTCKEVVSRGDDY
UniProt O15553: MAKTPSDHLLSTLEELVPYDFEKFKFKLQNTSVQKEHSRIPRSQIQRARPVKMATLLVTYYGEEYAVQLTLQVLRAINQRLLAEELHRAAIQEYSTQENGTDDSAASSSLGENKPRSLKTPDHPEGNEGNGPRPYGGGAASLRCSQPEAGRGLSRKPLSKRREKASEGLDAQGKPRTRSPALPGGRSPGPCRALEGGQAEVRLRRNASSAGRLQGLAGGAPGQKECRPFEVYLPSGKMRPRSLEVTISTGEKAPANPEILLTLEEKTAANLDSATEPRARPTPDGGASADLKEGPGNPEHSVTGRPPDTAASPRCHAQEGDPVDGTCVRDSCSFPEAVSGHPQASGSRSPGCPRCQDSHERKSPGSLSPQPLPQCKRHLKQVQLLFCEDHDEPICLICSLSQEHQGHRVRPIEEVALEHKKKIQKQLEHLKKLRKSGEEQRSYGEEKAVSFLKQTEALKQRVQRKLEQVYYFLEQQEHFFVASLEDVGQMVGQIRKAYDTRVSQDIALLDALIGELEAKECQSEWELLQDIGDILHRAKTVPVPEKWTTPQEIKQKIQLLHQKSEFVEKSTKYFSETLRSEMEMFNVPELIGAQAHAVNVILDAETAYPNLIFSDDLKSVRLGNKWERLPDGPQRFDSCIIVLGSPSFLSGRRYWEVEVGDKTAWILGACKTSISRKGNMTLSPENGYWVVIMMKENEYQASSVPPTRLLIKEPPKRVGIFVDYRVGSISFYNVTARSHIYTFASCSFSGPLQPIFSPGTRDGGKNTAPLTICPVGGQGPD
UniProt O60318: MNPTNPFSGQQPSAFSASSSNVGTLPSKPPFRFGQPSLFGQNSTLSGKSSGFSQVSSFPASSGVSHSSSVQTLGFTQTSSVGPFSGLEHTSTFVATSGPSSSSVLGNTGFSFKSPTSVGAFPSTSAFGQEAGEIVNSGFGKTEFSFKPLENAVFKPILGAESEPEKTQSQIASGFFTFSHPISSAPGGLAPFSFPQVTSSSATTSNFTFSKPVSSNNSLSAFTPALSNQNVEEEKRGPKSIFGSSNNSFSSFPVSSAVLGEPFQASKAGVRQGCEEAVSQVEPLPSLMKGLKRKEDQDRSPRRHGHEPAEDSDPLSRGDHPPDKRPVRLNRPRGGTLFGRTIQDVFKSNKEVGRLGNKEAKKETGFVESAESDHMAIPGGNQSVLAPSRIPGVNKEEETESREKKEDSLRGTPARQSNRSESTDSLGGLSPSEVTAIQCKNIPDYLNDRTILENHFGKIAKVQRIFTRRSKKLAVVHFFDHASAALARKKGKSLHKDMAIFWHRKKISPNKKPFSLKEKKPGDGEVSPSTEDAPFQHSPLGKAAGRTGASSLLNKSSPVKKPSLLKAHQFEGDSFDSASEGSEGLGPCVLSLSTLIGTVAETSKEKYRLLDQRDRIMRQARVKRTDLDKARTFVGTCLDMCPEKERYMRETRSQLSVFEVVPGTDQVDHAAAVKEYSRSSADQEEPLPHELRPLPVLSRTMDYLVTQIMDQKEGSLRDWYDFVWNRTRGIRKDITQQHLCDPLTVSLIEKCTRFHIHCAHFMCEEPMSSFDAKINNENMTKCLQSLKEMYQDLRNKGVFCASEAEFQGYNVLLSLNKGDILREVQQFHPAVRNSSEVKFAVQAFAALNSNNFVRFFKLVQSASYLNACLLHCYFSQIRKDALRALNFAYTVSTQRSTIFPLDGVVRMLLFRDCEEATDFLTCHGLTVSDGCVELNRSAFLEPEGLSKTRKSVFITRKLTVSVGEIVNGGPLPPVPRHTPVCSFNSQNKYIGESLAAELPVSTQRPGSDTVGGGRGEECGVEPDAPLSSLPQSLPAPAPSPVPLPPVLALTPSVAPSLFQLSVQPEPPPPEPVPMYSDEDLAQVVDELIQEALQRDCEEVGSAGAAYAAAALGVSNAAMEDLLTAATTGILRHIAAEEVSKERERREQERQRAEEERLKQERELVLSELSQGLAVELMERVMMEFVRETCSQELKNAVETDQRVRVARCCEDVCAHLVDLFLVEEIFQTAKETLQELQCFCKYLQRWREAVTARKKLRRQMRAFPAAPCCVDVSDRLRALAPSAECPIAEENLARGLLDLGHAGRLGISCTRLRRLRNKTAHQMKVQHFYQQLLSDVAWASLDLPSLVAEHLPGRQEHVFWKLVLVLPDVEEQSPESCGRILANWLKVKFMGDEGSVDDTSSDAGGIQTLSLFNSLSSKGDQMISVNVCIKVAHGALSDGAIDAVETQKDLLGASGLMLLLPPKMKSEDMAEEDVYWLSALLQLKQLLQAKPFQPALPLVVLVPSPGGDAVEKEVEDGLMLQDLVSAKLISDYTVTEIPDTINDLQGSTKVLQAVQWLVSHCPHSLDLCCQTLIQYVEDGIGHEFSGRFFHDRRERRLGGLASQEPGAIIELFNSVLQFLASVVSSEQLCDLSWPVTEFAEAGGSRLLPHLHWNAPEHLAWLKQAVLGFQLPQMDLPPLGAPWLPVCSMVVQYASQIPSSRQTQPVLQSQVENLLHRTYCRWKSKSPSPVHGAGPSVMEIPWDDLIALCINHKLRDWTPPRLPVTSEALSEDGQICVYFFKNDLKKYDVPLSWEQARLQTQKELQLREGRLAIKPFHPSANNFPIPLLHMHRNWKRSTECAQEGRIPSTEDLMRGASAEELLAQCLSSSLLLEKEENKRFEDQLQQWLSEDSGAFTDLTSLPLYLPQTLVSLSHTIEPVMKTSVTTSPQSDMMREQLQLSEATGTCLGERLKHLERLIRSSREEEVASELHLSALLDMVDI
UniProt Q15648, whole entry, looked up: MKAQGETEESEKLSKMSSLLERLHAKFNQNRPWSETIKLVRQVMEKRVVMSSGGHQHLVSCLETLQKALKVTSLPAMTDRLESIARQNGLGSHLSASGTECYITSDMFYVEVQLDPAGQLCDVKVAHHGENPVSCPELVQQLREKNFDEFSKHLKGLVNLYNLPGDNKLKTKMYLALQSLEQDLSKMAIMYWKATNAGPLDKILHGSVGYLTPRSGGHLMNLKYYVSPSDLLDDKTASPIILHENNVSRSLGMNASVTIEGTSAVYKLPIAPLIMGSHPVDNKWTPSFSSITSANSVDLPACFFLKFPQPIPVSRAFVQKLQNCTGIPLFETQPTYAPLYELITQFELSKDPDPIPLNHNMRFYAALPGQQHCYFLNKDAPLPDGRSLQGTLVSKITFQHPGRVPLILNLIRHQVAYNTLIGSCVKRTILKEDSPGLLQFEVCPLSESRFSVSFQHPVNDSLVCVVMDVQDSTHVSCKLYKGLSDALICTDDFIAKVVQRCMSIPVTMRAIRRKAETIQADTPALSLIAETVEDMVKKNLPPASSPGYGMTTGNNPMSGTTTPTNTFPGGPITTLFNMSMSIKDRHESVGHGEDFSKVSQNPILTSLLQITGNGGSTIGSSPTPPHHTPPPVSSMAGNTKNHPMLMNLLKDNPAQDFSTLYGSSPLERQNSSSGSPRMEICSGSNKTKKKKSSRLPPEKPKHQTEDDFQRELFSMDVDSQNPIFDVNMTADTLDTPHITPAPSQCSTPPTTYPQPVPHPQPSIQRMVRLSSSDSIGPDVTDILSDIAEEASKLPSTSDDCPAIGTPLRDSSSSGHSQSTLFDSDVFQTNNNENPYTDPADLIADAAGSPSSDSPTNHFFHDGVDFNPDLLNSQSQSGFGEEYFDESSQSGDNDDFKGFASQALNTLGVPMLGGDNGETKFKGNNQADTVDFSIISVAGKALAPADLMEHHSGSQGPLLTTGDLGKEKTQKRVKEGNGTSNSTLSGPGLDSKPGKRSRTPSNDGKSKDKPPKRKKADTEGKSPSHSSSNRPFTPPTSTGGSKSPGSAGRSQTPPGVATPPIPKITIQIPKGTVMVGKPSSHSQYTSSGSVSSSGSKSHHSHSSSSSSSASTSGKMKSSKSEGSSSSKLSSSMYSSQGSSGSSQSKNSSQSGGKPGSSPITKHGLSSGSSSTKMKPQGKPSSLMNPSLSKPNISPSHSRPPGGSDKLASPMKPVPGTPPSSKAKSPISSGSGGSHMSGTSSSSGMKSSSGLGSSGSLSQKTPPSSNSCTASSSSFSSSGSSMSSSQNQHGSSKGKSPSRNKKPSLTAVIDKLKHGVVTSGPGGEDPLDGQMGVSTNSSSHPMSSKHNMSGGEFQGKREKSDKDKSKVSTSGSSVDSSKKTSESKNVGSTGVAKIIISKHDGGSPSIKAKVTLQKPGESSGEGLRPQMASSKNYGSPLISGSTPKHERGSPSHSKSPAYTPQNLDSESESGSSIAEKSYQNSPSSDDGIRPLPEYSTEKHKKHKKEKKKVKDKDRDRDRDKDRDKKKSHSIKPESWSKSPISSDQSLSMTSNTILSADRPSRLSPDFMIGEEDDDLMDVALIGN
UniProt P25205: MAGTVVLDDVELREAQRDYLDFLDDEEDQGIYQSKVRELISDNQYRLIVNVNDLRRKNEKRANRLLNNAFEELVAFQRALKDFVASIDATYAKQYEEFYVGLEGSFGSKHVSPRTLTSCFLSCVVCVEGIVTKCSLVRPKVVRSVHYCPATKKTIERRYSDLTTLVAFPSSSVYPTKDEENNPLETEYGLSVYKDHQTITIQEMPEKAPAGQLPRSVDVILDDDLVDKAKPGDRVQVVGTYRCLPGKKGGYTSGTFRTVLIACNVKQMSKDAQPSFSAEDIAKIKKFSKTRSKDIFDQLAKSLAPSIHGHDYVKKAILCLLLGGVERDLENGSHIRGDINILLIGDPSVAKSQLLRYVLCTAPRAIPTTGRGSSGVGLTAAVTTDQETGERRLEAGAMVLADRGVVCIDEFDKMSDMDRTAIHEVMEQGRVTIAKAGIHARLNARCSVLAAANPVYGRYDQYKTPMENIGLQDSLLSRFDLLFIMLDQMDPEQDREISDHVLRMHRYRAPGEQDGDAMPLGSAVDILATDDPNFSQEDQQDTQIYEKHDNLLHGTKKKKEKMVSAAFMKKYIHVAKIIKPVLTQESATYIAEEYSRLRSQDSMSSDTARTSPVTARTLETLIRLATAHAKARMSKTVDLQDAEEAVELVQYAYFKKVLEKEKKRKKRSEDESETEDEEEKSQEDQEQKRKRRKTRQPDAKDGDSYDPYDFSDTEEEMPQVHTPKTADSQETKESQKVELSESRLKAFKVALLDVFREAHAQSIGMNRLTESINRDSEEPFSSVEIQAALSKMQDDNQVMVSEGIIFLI
UniProt P49736, whole entry, looked up: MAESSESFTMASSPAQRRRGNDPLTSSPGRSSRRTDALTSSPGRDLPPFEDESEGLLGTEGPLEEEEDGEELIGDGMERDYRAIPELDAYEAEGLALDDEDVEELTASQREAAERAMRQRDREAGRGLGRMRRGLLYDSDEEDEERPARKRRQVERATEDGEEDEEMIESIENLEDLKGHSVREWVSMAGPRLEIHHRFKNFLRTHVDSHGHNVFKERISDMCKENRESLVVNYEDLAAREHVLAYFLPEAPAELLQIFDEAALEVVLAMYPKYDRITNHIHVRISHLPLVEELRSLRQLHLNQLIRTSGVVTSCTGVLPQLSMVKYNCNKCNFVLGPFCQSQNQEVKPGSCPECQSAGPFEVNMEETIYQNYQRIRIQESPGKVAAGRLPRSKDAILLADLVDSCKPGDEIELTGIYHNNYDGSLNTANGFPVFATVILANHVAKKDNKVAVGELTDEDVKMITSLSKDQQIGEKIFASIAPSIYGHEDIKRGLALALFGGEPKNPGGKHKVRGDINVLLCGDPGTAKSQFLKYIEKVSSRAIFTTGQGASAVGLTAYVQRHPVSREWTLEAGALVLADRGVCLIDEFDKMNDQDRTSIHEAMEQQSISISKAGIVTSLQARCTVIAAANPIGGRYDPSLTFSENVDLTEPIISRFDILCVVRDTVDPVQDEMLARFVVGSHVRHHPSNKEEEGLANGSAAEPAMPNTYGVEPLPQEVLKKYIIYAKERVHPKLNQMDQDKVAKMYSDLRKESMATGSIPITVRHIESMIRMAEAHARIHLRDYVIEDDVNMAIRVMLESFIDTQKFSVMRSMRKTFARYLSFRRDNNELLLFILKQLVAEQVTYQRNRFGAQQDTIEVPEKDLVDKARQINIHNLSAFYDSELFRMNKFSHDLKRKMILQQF

Some of the results follow.

Compound in the assay: CC1Cc2ccccc2N1C(=O)C1CCCN(C1)C(=O)CCl (mixture of isomers) [TRIM25 ligand 11 (diastereomer mixture)]
Put plainly: probe-labelled cysteine peptide fold change vs DMSO (competition) (log2 fold change); higher = less target engagement (more negative = stronger competition). Particulars: THP-1, incubation time: 4 h.
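Also: competitive chemoproteomic profiling in live THP-1 cells with an iodoacetamide desthiobiotin (IA-DTB) probe, comparing probe-labelled peptide intensities in compound-treated cells against DMSO-treated controls.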

As to “METAP2_P50579_197_PGMTMIEICEK (UniProt P50579)”, the “probe-labelled cysteine peptide fold change” value is 0.0918 (10 µM) and 0.0252 (50 µM).

In the case of “MED18_Q9BUE0_43_GLCDNMEPETFLDHEMVFLLK (UniProt Q9BUE0)”, the “probe-labelled cysteine peptide fold change” value (10 µM) came to 0.00704 and the “probe-labelled cysteine peptide fold change” value (50 µM) worked out at 0.0536.

For the target “MCTS1_Q9ULC4_113_FVLSGANIMCPGLTSPGAK (UniProt Q9ULC4)”, the “probe-labelled cysteine peptide fold change” value is -0.105 (10 µM) and -0.153 (50 µM).

Take “MBTD1_Q05BQ5_78_FCSVSCSR (UniProt Q05BQ5)”: the “probe-labelled cysteine peptide fold change” value reads like this: (10 µM) -0.095; (50 µM) 0.0391.

With “MEFV_O15553_355_CQDSHER (UniProt O15553)”, the “probe-labelled cysteine peptide fold change” value by setting is: (10 µM) 0.0214; (50 µM) -0.096.

Turning to MCM6_Q14566_91_VYPYLCR (UniProt Q14566), the “probe-labelled cysteine peptide fold change” value is, setting by setting: (10 µM) 0.0405; (50 µM) 0.156.

Regarding “MCM3AP_O60318_800_GVFCASEAEFQGYNVLLSLNK (UniProt O60318)”, the “probe-labelled cysteine peptide fold change” value was -0.0195 (10 µM) and 0.0181 (50 µM).

Regarding “MEPCE_Q7L2J0_452+463_GRDVLDLGCNVGHLTLSIACK (UniProt Q7L2J0)”, the “probe-labelled cysteine peptide fold change” value runs as follows: (10 µM) 0.177; (50 µM) 0.0445.

Take “METTL3_Q86U44_500_GNPQGFNQGLDCDVIVAEVR (UniProt Q86U44)”: the “probe-labelled cysteine peptide fold change” value was -0.0498 (10 µM) and -0.0432 (50 µM).

As to “MED1_Q15648_443_EDSPGLLQFEVCPLSESR (UniProt Q15648)”, the “probe-labelled cysteine peptide fold change” value runs as follows: (10 µM) -0.0372; (50 µM) -0.211.

For “MCM3AP_O60318_1839_STECAQEGR (UniProt O60318)”, the “probe-labelled cysteine peptide fold change” value worked out at 0.242 (10 µM) and 0.121 (50 µM).

On to “MCM3_P25205_407_GVVCIDEFDK (UniProt P25205)”, for which the “probe-labelled cysteine peptide fold change” value reads like this: (10 µM) -0.155; (50 µM) -0.244.

For “MED24_O75448_336_DFTEDVNCAFEFLLK (UniProt O75448)”, the “probe-labelled cysteine peptide fold change” value by setting is: (10 µM) 0.119; (50 µM) 0.0145.

Consider “MED1_Q15648_302_WTPSFSSITSANSVDLPACFFLK (UniProt Q15648)”, for which the “probe-labelled cysteine peptide fold change” value runs as follows: (10 µM) -0.00458; (50 µM) 0.123.

On to “MCM6_Q14566_351_NLYHNLCTSLFPTIHGNDEVKR (UniProt Q14566)”, for which the “probe-labelled cysteine peptide fold change” value (10 µM) was -0.237 and the “probe-labelled cysteine peptide fold change” value (50 µM) was -0.0364.

For the target “MCM6_Q14566_637_MHCCDEVQPK (UniProt Q14566)”, the “probe-labelled cysteine peptide fold change” value runs as follows: (10 µM) -0.0366; (50 µM) -0.0938.

With “MCM5_P33992_207_CPLDPYFIMPDK (UniProt P33992)”, the “probe-labelled cysteine peptide fold change” value is, setting by setting: (10 µM) 0.027; (50 µM) -0.00496.

Turning to “METTL14_Q9HCE5_120_GTQSLNPHNDYCQHFVDTGHRPQNFIR (UniProt Q9HCE5)”, the “probe-labelled cysteine peptide fold change” value by setting is: (10 µM) 0.0663; (50 µM) 0.095.

Consider “MECR_Q9BV79_263_LALNCVGGK (UniProt Q9BV79)”, for which the “probe-labelled cysteine peptide fold change” value by setting is: (10 µM) -0.123; (50 µM) 0.106.

For the target “MEPCE_Q7L2J0_463_GRDVLDLGCNVGHLTLSIACK (UniProt Q7L2J0)”, the “probe-labelled cysteine peptide fold change” value by setting is: (10 µM) 0.0673; (50 µM) -0.0667.

Turning to “MCM2_P49736_661_FDILCVVR (UniProt P49736)”, the “probe-labelled cysteine peptide fold change” value (10 µM) amounted to 0.12 and the “probe-labelled cysteine peptide fold change” value (50 µM) turned out to be 0.326.

Take “METAP1_P53582_14_VCETDGCSSEAK (UniProt P53582)”: the “probe-labelled cysteine peptide fold change” value was -0.0223 (10 µM) and -0.0699 (50 µM).

As to “MCM3_P25205_446_CSVLAAANPVYGR (UniProt P25205)”, the “probe-labelled cysteine peptide fold change” value is -0.0825 (10 µM) and -0.0713 (50 µM).

Turning to “MEFV_O15553_375_KSPGSLSPQPLPQCK (UniProt O15553)”, the “probe-labelled cysteine peptide fold change” value (10 µM) came to 0.0655 and the “probe-labelled cysteine peptide fold change” value (50 µM) was -0.0174.

For “MGAT2_Q10469_386_KTCRPSTQSAQIESLLNNNK (UniProt Q10469)”, the “probe-labelled cysteine peptide fold change” value (10 µM) is -0.194 and the “probe-labelled cysteine peptide fold change” value (50 µM) is -0.394.

“MCM2_P49736_584_GVCLIDEFDK (UniProt P49736)”: the “probe-labelled cysteine peptide fold change” value by setting is: (10 µM) 0.102; (50 µM) 0.0268.

For “MED23_Q9ULK4_284_DMVCNMLGLNK (UniProt Q9ULK4)”, the “probe-labelled cysteine peptide fold change” value (10 µM) came out at 0.0384 and the “probe-labelled cysteine peptide fold change” value (50 µM) was 0.326.

As for “MCM2_P49736_661_FDILCVVRDTVDPVQDEMLAR (UniProt P49736)”, the “probe-labelled cysteine peptide fold change” value (10 µM) is -0.495 and the “probe-labelled cysteine peptide fold change” value (50 µM) was -0.0098.

“MCM3_P25205_148_SVHYCPATK (UniProt P25205)”: the “probe-labelled cysteine peptide fold change” value (10 µM) amounted to 0.0515 and the “probe-labelled cysteine peptide fold change” value (50 µM) was -0.0398.

As to “MCM6_Q14566_242_CDFTGTLIVVPDVSK (UniProt Q14566)”, the “probe-labelled cysteine peptide fold change” value by setting is: (10 µM) 0.132; (50 µM) -0.00888.

For the target “ME2_P23368_274_YCTFNDDIQGTAAVALAGLLAAQK (UniProt P23368)”, the “probe-labelled cysteine peptide fold change” value runs as follows: (10 µM) 0.174; (50 µM) 0.0402.

Take “MECP2_P51608_429_GGSLESDGCPKEPAK (UniProt P51608)”: the “probe-labelled cysteine peptide fold change” value runs as follows: (10 µM) -0.274; (50 µM) -0.613.
